Measured values taken from patent publication US6485924B2, “Method for identifying inhibitors of cytokinesis” (Boehringer Ingelheim International GmbH, priority 1999, dated 2002).
Some entries share one result that the patent states for a list of compounds.

Biological target: T1, XSepA (Xenopus laevis, UniProt Q9DE33)
T1 construct: made in house; host or cells: E. coli BL21(DE3)
T1 sequence (Q9DE33 1-356): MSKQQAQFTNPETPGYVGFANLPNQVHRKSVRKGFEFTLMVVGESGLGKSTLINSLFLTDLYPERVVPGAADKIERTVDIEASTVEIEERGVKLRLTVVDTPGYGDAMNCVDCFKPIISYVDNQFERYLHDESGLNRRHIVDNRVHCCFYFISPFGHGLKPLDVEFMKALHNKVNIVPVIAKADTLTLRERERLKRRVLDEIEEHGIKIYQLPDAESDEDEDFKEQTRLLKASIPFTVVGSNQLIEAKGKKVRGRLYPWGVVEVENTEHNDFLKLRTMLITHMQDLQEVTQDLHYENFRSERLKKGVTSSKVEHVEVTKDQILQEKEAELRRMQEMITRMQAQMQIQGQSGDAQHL
Test: Filament assembly / polymerization followed by immunofluorescence microscopy
Assay type: biochemical
Conditions: XSepA incubated with nucleotide for 30 minutes
Experimental: Polymerization reactions were carried out in S-buffer in the presence of 5 mM MgCl2 and GTP, GTP-γ-S, GDP or ATP (Gibco). Before nucleotide addition, all samples were pre-cleared in an ultracentrifuge (see below). Aliquots of the reaction were diluted to a final septin concentration of 3.3 μg/ml, and 100 μl drops spotted on glass coverslips for 1 min. Before use, coverslips were soaked with an acetone solution of 0.5% 3-aminopropyltriethoxy-silane (Sigma), washed in acetone and air-dried. Following sample application, the coverslips were washed with 2 ml S-buffer, fixed in cold methanol for 10 min and stained with a polyclonal rabbit antibody raised against an N-terminal peptide of XSepA (M. Glotzer and T. Hyman, in preparation). Secondary antibodies were DTAF-coupled anti-rabbit (Dianova). Images were acquired using a Zeiss Axioplan II microscope and Adobe Photoshop software. […]
To gain insight into the polymerization mechanism of XSepA, the kinetics of the filament formation reaction was followed using immunofluorescence microscopy. […] For each time point, individual septin filaments were counted and their lengths measured. […] Immunofluorescence images were acquired as described and the length of the filaments was measured (see Methods section). […]

Nc1nc2c(ncn2[C@@H]2O[C@H](COP(=O)(O)OP(=O)(O)OP(=O)(O)O)[C@@H](O)[C@H]2O)c(=O)[nH]1 [GTP, guanosine triphosphate]
length of filamentous structures observed: up to 7 μm
